Measurements: PMC9077134 (OncoTargets and therapy, 2022)

Test: Caco-2 bidirectional permeability assay
Settings: human, Caco-2, pH 7.4, Papp (Basal to Apical), Caco-2, 10 µM, 37 °C

Compound `CC(C)NCC(O)COc1ccc(CC(N)=O)cc1` (stereo not shown) [Atenolol, atenolol] has a Papp at 2 h, 10 µM of 3 ± 0.2 ×10⁻⁶ cm/s.
